Reference: patent publication US6248765A, “Imidazole derivatives as histamine receptor H3 (ANT) agonists” (priority 1995, dated 2001)
Some results were stated once for a whole list of compounds, not compound by compound. At least one structure is not confirmed: it was looked up by name or label, or the drawing left a doubt.

The chains behind the UniProt entries cited, without tags or fusion partners. Where a name states a change or a piece, a line headed by the entry shows the natural chain unless it says otherwise.
UniProt Q9QYN8: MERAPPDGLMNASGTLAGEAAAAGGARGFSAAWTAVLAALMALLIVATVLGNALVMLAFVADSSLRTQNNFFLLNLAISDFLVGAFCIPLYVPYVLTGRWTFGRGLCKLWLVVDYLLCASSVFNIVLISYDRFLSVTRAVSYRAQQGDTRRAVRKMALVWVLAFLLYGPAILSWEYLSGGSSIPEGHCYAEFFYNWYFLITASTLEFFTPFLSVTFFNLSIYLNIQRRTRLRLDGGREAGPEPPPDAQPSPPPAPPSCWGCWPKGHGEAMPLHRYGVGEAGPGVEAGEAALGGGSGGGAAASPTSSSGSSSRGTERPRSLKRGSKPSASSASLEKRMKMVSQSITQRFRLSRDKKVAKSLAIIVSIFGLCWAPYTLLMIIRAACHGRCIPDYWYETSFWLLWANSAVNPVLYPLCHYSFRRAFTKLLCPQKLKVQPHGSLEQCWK

Biological target: T1, histamine H3 receptor (Rattus norvegicus, UniProt Q9QYN8)
T1 construct: synthesized from [^3 H]histidine by synaptosomes of rat cerebral cortex; from tissue; host or cells: rat cerebral cortex synaptosomes
Assay: H3 antagonist power: reversal of (R)-alpha-methylhistamine-induced inhibition of [3H]histamine release from synaptosomes of rat cerebral cortex
Type: biochemical
Details: in words

| Structure (SMILES) | functional class at the histamine H3 receptors (antagonists) |
| --- | --- |
| c1ccc(COc2ccc(OCCCc3c[nH]cn3)cc2)cc1 [Example 109, 4-[3-(4-Benzyloxyphenoxy)propyl]-1H-imidazole] | antagonists |
| C=CCNC(=O)OCCCc1c[nH]cn1 [Example 112, 3-(1H-Imidazol-4-yl)propyl-N-(2-propenyl) carbamate] | antagonists |
| CCC(CC)(NC(=O)OCCCc1c[nH]cn1)c1ccccc1 [Example 113, 3-(1H-Imidazol-4-yl)propyl-N-(3-phenyl-3-pentyl) carbamate] | antagonists |
| CC(NC(=O)OCCCc1c[nH]cn1)(c1ccccc1)c1ccccc1 [Example 114, N-(1,1-Diphenylethyl)-3-(1H-imidazol-4-yl)propyl carbamate] | antagonists |
| CC(C)(C)OCCc1c[nH]cn1 [Example 116, 1,1-Dimethylethyl 2-(1H-imidazol-4-yl)ethyl ether] | antagonists |
| CC(C)(C)OCCCc1c[nH]cn1 [Example 117, 1,1-Dimethylethyl 3-(1H-imidazol-4-yl)propyl ether] | antagonists |
| C#CCOCCCc1c[nH]cn1 [Example 120, 3-(1H-Imidazol-4-yl)propyl 2-propynyl ether] | antagonists |
| C#Cc1ccc(OCCCc2c[nH]cn2)cc1 [Example 122, 4-(1-Ethynyl)phenyl 3-(1H-imidazol-4-yl)propyl ether] | antagonists |
| CC(C)(C)C#Cc1ccc(OCCCc2c[nH]cn2)cc1 [Example 124, 4-(3,3-Dimethyl-1-butynyl)phenyl 3-(1-imidazol-4-yl)propyl ether] | antagonists |
| O=C(c1ccc(OCCc2c[nH]cn2)cc1)C1CC1 [Example 126, Cyclopropyl 4-(2-(1H-imidazol-4-yl)ethyloxy)phenyl ketone] | antagonists |
| CCCCC(=O)c1ccc(OCCCc2c[nH]cn2)cc1 [Example 127, (4-(3-(1H-Imidazol-4-yl)propyloxy)phenyl)pentanone] | antagonists |
| CC(C)(C)CC(=O)c1ccc(OCCCc2c[nH]cn2)cc1 [Example 129, 3,3-Dimethyl-(4-(3-(1H-imidazol-4-yl)propyloxy)phenyl)butanone] | antagonists |
| CC(=O)c1ccc(OCCCc2c[nH]cn2)cc1F [Example 135, (2-Fluoro-4-(3-(1H-imidazol-4-yl)propyloxy)phenyl)ethanone] | antagonists |
| CCC(=O)c1ccc(OCCCc2c[nH]cn2)cc1F [Example 136, (2-Fluoro-4-(3-(1H-imidazol-4-yl)propyloxy)phenyl)propanone] | antagonists |
| O=C(c1ccc(OCCCc2c[nH]cn2)cc1)c1cccs1 [Example 137] | antagonists |
| CCCCC(=NO)c1ccc(OCCCc2c[nH]cn2)cc1 [Example 141, (4-(3-(1H-Imidazol-4-yl)propyloxy)phenyl)pentanone oxime] | antagonists |
| CCCCCC(=NO)c1ccc(OCCCc2c[nH]cn2)cc1 [Example 142, (4-(3-(1H-Imidazol-4-yl)propyloxy)phenyl)hexanone oxime] | antagonists |
| CC(=NNC(N)=O)c1ccc(OCCCc2c[nH]cn2)cc1 [Example 147, (4-(3-(1H-Imidazol-4-yl)propyloxy)phenyl)ethanone semicarbazone] | antagonists |
| O=c1oc2cc(OCCCc3c[nH]cn3)ccc2s1 [Example 148, 6-(3-(H-imidazol-4-yl)propyloxy)-2H-1,3-benzoxathiol-2-one] | antagonists |
